Source: ChEMBL document CHEMBL3988442, “University of Dundee, Small-Polar-MMV Screening Library” (2021).

By UniProt entry, the sequences of proteins in these tests, tags left out.
UniProt E9BF75, entry or part of it: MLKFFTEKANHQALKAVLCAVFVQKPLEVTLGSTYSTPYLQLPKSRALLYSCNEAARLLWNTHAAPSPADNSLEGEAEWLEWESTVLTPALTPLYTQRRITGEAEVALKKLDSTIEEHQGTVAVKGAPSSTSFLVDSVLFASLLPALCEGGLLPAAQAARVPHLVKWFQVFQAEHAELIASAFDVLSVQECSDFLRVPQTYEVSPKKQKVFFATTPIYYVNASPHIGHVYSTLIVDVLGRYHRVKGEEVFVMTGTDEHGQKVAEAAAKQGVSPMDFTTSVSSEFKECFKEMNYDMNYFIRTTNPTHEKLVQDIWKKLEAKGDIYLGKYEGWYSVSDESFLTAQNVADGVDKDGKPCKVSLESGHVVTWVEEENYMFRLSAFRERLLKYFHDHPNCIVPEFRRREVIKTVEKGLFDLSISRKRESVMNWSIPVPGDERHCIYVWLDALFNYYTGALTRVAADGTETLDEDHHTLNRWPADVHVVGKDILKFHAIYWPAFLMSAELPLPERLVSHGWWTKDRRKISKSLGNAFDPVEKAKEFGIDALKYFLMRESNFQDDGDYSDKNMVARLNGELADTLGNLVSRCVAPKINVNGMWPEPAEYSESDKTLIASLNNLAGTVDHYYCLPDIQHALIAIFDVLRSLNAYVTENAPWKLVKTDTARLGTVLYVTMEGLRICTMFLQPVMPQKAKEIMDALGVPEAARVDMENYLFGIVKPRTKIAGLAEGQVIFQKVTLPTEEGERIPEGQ

A: 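Assay on Mycobacterium tuberculosis, filed only as a heat shock assay from Cornell; the read-out is not stated. The concentration is filed as 10 mM, unlikely as a test dose, so the dose is not known. The record gives no direction; compounds that gave an IC50 in retests scored well above the rest, so higher reads as stronger inhibition. Of about 69,000 compounds tested this way, about 930 (1.4%) reached 50% or more in at least one test.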
B: 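Primary screen of methionyl-tRNA synthetase; the read-out is not stated. Target: Methionyl-tRNA synthetase (putative), Leishmania donovani (UniProt E9BF75). The test concentration is not given. The values are filed as inhibition. Of about 68,000 compounds tested this way, about 24 (0.035%) reached 50% or more in at least one test.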
C: 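Whole-cell assay for inhibitors of Mycobacterium tuberculosis growth, labelled Cornell in the record; the read-out is not stated. The concentration is filed as 10 mM, unlikely as a test dose, so the dose is not known. The record gives no direction; compounds strong in two other growth screens of this library score well above the rest, so higher reads as stronger inhibition. Of about 53,000 compounds tested this way, about 900 (1.7%) reached 50% or more in at least one test.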

All values are in %.
The controls that fix the scale are not given in the record; negative values are as filed.
The compounds are a random part of those screened.
A dash means the value is not listed here; it may have been measured.

structure,A,B,C
COc1ccc(C(=O)Nc2cnn(CCN3CCOCC3)c2)c(O)c1,20.52,11.48,-
Cc1ccc(CN2CCc3ncc(CNC(=O)C4CCC4)n3CC2)o1,-,18.78,-
O=C(COC[C@@H]1CC[C@H]2[C@H](CCN2Cc2ccco2)O1)N1CCCC1,-,7.975,-
CCN(Cc1nonc1C)C(=O)Cn1nc(C(F)(F)F)cc1C,6.02,5.276,-
O=C(O)C(F)(F)F.O=C(O)C(F)(F)F.[H][C@@]12CCN(CC3CCOCC3)[C@@]1([H])CCN2Cc1c(C)noc1C,-9.429,-,0.9736
[H][C@@]12OCCC[C@]1([H])N(C(N)=O)C[C@@H]2NC(=O)c1cscn1,27.99,-,0.2026
CC(=O)N1CCc2[nH]cnc2C12CCN(C(=O)Cc1ccccn1)CC2,14.85,18.1,22.28
OC(c1ccccc1)C1CCN(Cc2csc(-c3ncccn3)n2)CC1 (centres undefined),-31.31,14.29,-
COC[C@@H]1CC[C@H]2[C@H](CCN2C(=O)c2ccncc2F)O1,-,17.47,-
COCc1cnc2n1CCN(C1CCCC1)C2C (centres undefined),-,12.7,-
[H][C@]12CCC(=O)N(CC)[C@@]1(C)CCCCN2C(=O)CCn1nccc1C,2.965,-,10.33
O=C(c1ccsc1)N1CCCC(c2cc(C(F)(F)F)[nH]n2)C1 (centres undefined),21.3,10.24,20.79
CCN1CC(CN(C)Cc2nc(-c3ccc(C)o3)oc2C)CC1=O (centres undefined),3.988,15.26,25.12
CC[C@@H]1N(Cc2ccc(F)cc2)CCC[C@]12CCC(=O)N2CCOC.O=C(O)C(F)(F)F,-21.68,-,-
CCn1ncc2c1C(COC)CN(Cc1cnn(C)c1)C2 (centres undefined),-8.151,12.18,-
Cn1ncc(Cl)c1C(=O)N1CCc2nc3sccc3c(=O)n2CC1,4.639,3.871,-13.36
CCS(=O)(=O)NCCNC(C)(C)c1nc(C)cs1,1.993,4.11,-
CCN(CCn1c(=O)oc2ccccc21)CC1CCOCC1,86.99,7.581,48
CC(=O)Nc1cc(C(=O)Nc2cc(CC(C)(C)C)nn2C)ccc1F,15.54,13.94,13.61
Cc1cnc(CN(C)Cc2cc3c(cc2OC(F)F)OCO3)o1,-0.5372,16.95,42.61
O=C(CSc1nccc(-c2ccc3c(c2)OCO3)n1)N1CCOCC1,-7.672,12.7,-10.21
[H][C@]12CC[C@](O)(CC1)C(CN1CCOCC1)N2Cc1ccc(F)cc1 (some centres undefined),25.15,-,5.685
COCCC(=O)Nc1cc(CC(C)(C)C)n[nH]1,-15.17,11.56,-
CCc1ccc(C(=O)O)cc1S(=O)(=O)Nc1ccc2c(c1)OCCO2,5.438,10.22,-
CC(=O)N1CCCn2nc(CNS(=O)(=O)c3cc(C)cs3)cc2C1,-31.99,15.56,29.84
CC(c1ccccn1)N(C)C(=O)NCCn1c(=O)oc2ccccc21 (centres undefined),-3.677,-13.04,-26.42
O=C(O)C(F)(F)F.O=C(O)C(F)(F)F.c1ccc(CN2CCOCC3(CCN(C4CCOCC4)C3)C2)cc1 (centres undefined),-4.399,-,-3.323
Cc1nn(C)c(C)c1C1CCCN1c1ncnc2[nH]ccc12 (centres undefined),9.843,12.32,11.16
CCc1nnsc1C(=O)NC1CCN(c2ccccn2)CC1,-7.905,1.115,-35.07
CCc1noc(C(C)N2CCN(c3ncnc4sccc34)CC2)n1 (centres undefined),10.14,15.03,20.1
CN(C)CCN1C[C@@H]2CN(c3ccccc3)C[C@@H]2C1=O,-,0,-
Cc1cc(CN2CCN(C(=O)NCc3ccc(C)s3)CC2)on1,2.088,12.05,-
Cc1ccc(CN2CCCC(c3nn(C)c4nccnc34)C2)s1 (centres undefined),-1.029,8.333,23.68
O=C(c1ccc2[nH]ccc2c1)N1Cc2nc(CN3CCCCC3)oc2C1,-,21.95,-
CC(C)c1ccc(C(C)N2CCCN(C(N)=O)CC2)cc1 (centres undefined),-6.226,15.59,37.55
O=C(NCCCN1CCc2ccccc2C1)c1cccnc1O,0.9461,11.19,-
O=C(NC1CC1)C1CN(Cc2ccc3c(c2)OCCO3)CCN1 (centres undefined),18.55,9.045,5.748
O=C(O)C(F)(F)F.[H][C@@]12C[C@@H](C)O[C@]1([H])CN(S(=O)(=O)c1c(C)nn(C)c1C)C2,3.558,-,-13.6
CC(NC(=O)N1CCNC(=O)CC1)c1c(F)cccc1Cl (centres undefined),16.59,19.47,35.2
[H][C@@]12COC[C@]1(COCc1cccnc1)CN(C(=O)c1cnn(C)c1)C2,24.05,-,9.273
CC1CCN(C(=O)C2CCN(S(C)(=O)=O)CC2)c2ccccc21 (centres undefined),6.946,11.34,-
CC(C)Cc1nc(CCn2cncn2)n(-c2ccc3c(c2)OCCO3)n1,-24.32,13.2,-
[H][C@@]12CS(=O)(=O)C[C@]1([H])N(Cc1cc(F)cc(F)c1)CCN2CCO,-14.29,-,33.89
CN(CCN1CCCC1=O)CC(c1cccs1)N1CCOCC1 (centres undefined),10.62,9.235,31.03
Cc1noc(C)c1CNC(=O)C1(NS(C)(=O)=O)CCCCC1,-3.885,14.37,-32.04
Cc1ccc(NC2CCN(C(=O)COc3cccc(F)c3)CC2)nn1,-8.762,-2.279,-50.32
CC1N(C)C(=O)COC12CCN(Cc1ccsc1)CC2 (centres undefined),-,8.333,-
Cc1cnn(CC2CCN(CC(O)Cn3cccn3)CC2)c1 (centres undefined),-10.56,4.878,-0.038
COc1cccc(NC(=O)NCC(O)c2ccc(F)cc2F)c1 (centres undefined),-6.677,11.4,-4.568
CS(=O)(=O)N1CC2(CCN(CC3CC3)C2)Cc2ccccc21 (centres undefined),6.184,10.86,-
COc1c(CNCc2ccc(CN(C)C)cc2)c(C(C)C)nn1C,-8.397,9.184,-
O=C(O)C(F)(F)F.[H][C@@]12CCN(Cc3ccc(C)s3)C[C@]1([H])[C@H](c1nc(C)no1)CCO2,-29.64,-,9.78
O=C(NCC1CCOCC1)[C@H]1C[C@@H]2CCN(c3nncs3)C[C@@H]2O1,-,10.66,-
CCCNC(=O)[C@@H]1CCCN1[C@@H](C(=O)NC)C1CC1.Cl,-4.634,-,-
CCOCCC(=O)Nc1cc(C(N)=O)ccc1N1CCCC(C)C1 (centres undefined),15.27,6.812,11.28
[H][C@@]12CS(=O)(=O)C[C@]1([H])N(C(=O)Nc1cccc(C#N)c1)CCN2C(=O)CC,6.363,-,-5.861
Cc1nc(C)c(C)c(NCCSCc2[nH]cnc2C)n1,-19.72,8.533,-
CCN1CCN(C(=O)C2CCOC2)c2ccccc21 (centres undefined),-9.931,10.16,-2.466
Cc1cc(C)nc(C2CCCN2S(=O)(=O)N2CCOCC2)n1 (centres undefined),5.295,14.89,26.14
CC(N1CCN(C(=O)NCc2cccc(C#N)c2)CC1)C(F)(F)F (centres undefined),-8.058,14.38,11.62